Settings: CF-1 mice, 10 μmol/kg IV tail vein
Procedure: In-life phase: Test compounds were administered to CF-1 (20-30 g) mice at 10 μmol/kg (4 to 7 mg/kg) following IV administration in the tail vein. Two time-points, 5 and 60 min, were collected post dose. Four mice were harvested for heparinized plasma and non-perfused brains at each time-point for a total of 8 mice per compound.
Analytical phase: Samples were extracted and evaporated to dryness, then reconstituted and injected onto a reverse phase chromatographic column while monitoring the effluent with a triple quadrupole mass spectrometer. Quantitation was then performed with a 1/x^2 weighted fit of the least-squares regression from calibration standards prepared in parallel with the in vivo samples. The lower limit of quantitation (LOQ) is generally 1 ng/mL and 0.5 ng/g for the plasma and brain respectively. Data was reported in micromolar (μM) units. Brain levels were corrected for plasma volumes (16 μL/g).

For `CN1C(=O)CN=C(c2ccccc2)c2cc(Cl)ccc21` [Diazepam], the “brain concentration level at 5 min” value (5 min post dose) was 5481 nM and the “brain concentration level at 60 min” value (60 min post dose) was 176 nM.
